# This is one part of the list.
# Experiments:
# Experiment in all cases: glycan array binding signal (z-score within array); higher = stronger binding
# Conditions in all cases: glycan notation: IUPAC condensed, linker removed
# [1] = target: Gal(a1-3)Gal(b1-4)GlcNAc(b1-2)Man
# Procedure, shortened: (§1)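 Arrays were curated from the Consortium for Functional Glycomics database, 3228 in total, and kept only where the protein sequence was available. Binding is expressed as a within-array Z-score. This score was averaged across arrays of the same protein sequence at different concentrations or buffers and across linkers, and negative values can be read as non-binding.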
# [2] = target: Gal(a1-3)Gal(b1-4)GlcNAc(b1-2)Man(a1-3)[Gal(a1-3)Gal(b1-4)GlcNAc(b1-2)Man(a1-6)]Man(b1-4)GlcNAc(b1-4)GlcNAc
# Procedure, shortened: as §1
# [3] = target: Gal(a1-3)Gal(b1-4)GlcNAc(b1-3)GalNAc
# Procedure, shortened: as §1
# [4] = target: Gal(a1-3)Gal(b1-4)GlcNAc(b1-6)GalNAc
# Procedure, shortened: as §1
# [5] = target: Gal(a1-3)Gal(b1-4)[Fuc(a1-3)]GlcNAc
# Procedure, shortened: as §1
# [6] = target: Gal(a1-3)Gal(b1-4)[Fuc(a1-3)]GlcNAc(b1-2)Man(a1-3)[Gal(a1-3)Gal(b1-4)[Fuc(a1-3)]GlcNAc(b1-2)Man(a1-6)]Man(b1-4)GlcNAc(b1-4)GlcNAc
# Procedure, shortened: as §1
# Gal(a1-3)GalNAc = target: Gal(a1-3)GalNAc
# Procedure, shortened: as §1
# [7] = target: Gal(a1-3)[Gal(a1-4)]Gal(b1-4)GlcNAc
# Procedure, shortened: as §1
# [8] = target: Gal(a1-4)Gal(b1-3)GlcNAc(b1-2)Man(a1-3)[Gal(a1-4)Gal(b1-3)GlcNAc(b1-2)Man(a1-6)]Man(b1-4)GlcNAc(b1-4)GlcNAc
# Procedure, shortened: as §1
# Gal(a1-4)Gal(b1-4)Glc = target: Gal(a1-4)Gal(b1-4)Glc
# Procedure, shortened: as §1
# Gal(a1-4)Gal(b1-4)GlcNAc = target: Gal(a1-4)Gal(b1-4)GlcNAc
# Procedure, shortened: as §1
# [9] = target: Gal(a1-4)Gal(b1-4)GlcNAc(b1-2)Man(a1-3)[Gal(a1-4)Gal(b1-4)GlcNAc(b1-2)Man(a1-6)]Man(b1-4)GlcNAc(b1-4)GlcNAc
# Procedure, shortened: as §1
# [10] = target: Gal(a1-4)Gal(b1-4)GlcNAc(b1-3)Gal(b1-4)Glc
# Procedure, shortened: as §1
# Gal(a1-4)GlcNAc = target: Gal(a1-4)GlcNAc
# Procedure, shortened: as §1
# Gal(a1-6)Glc = target: Gal(a1-6)Glc
# Procedure, shortened: as §1
# Gal(b1-2)Gal = target: Gal(b1-2)Gal
# Procedure, shortened: as §1
# Gal(b1-3)Gal = target: Gal(b1-3)Gal
# Procedure, shortened: as §1
# Gal(b1-3)Gal(b1-4)GlcNAc = target: Gal(b1-3)Gal(b1-4)GlcNAc
# Procedure, shortened: as §1
# Gal(b1-3)GalNAc = target: Gal(b1-3)GalNAc
# Procedure, shortened: as §1
# [11] = target: Gal(b1-3)GalNAc(a1-3)[Fuc(a1-2)]Gal(b1-4)Glc
# Procedure, shortened: as §1
# [12] = target: Gal(b1-3)GalNAc(a1-3)[Fuc(a1-2)]Gal(b1-4)GlcNAc
# Procedure, shortened: as §1
# Gal(b1-3)GalNAc(b1-3)Gal = target: Gal(b1-3)GalNAc(b1-3)Gal
# Procedure, shortened: as §1
# [13] = target: Gal(b1-3)GalNAc(b1-3)Gal(a1-4)Gal(b1-4)Glc
# Procedure, shortened: as §1
# [14] = target: Gal(b1-3)GalNAc(b1-4)Gal(b1-4)Glc
# Procedure, shortened: as §1
# [15] = target: Gal(b1-3)GalNAc(b1-4)[Neu5Ac(a2-3)]Gal(b1-4)Glc
# Procedure, shortened: as §1
# Gal(b1-3)GlcNAc = target: Gal(b1-3)GlcNAc
# Procedure, shortened: as §1
# [16] = target: Gal(b1-3)GlcNAc(a1-3)Gal(b1-4)GlcNAc
# Procedure, shortened: as §1
# [17] = target: Gal(b1-3)GlcNAc(a1-6)Gal(b1-4)GlcNAc
# Procedure, shortened: as §1
# Gal(b1-3)GlcNAc(b1-2)Man = target: Gal(b1-3)GlcNAc(b1-2)Man
# Procedure, shortened: as §1
# [18] = target: Gal(b1-3)GlcNAc(b1-2)Man(a1-3)[Gal(b1-3)GlcNAc(b1-2)Man(a1-6)]Man(b1-4)GlcNAc(b1-4)GlcNAc
# Procedure, shortened: as §1
# [19] = target: Gal(b1-3)GlcNAc(b1-2)Man(a1-3)[Gal(b1-3)GlcNAc(b1-2)Man(a1-6)]Man(b1-4)GlcNAc(b1-4)[Fuc(a1-6)]GlcNAc
# Procedure, shortened: as §1
# [20] = target: Gal(b1-3)GlcNAc(b1-2)Man(a1-3)[GlcNAc(b1-4)][Gal(b1-3)GlcNAc(b1-2)Man(a1-6)]Man(b1-4)GlcNAc(b1-4)GlcNAc
# Procedure, shortened: as §1
# [21] = target: Gal(b1-3)GlcNAc(b1-2)[Gal(b1-3)GlcNAc(b1-6)]Man(a1-6)[Gal(b1-3)GlcNAc(b1-2)Man(a1-3)]Man(b1-4)GlcNAc(b1-4)GlcNAc
# Procedure, shortened: as §1
# [22] = target: Gal(b1-3)GlcNAc(b1-3)Gal(b1-3)GlcNAc
# Procedure, shortened: as §1
# [23] = target: Gal(b1-3)GlcNAc(b1-3)Gal(b1-4)Glc
# Procedure, shortened: as §1
# [24] = target: Gal(b1-3)GlcNAc(b1-3)Gal(b1-4)GlcNAc
# Procedure, shortened: as §1
# [25] = target: Gal(b1-3)GlcNAc(b1-3)Gal(b1-4)GlcNAc(b1-2)Man(a1-3)[Gal(b1-3)GlcNAc(b1-3)Gal(b1-4)GlcNAc(b1-2)Man(a1-6)]Man(b1-4)GlcNAc(b1-4)GlcNAc
# Procedure, shortened: as §1
# [26] = target: Gal(b1-3)GlcNAc(b1-3)Gal(b1-4)GlcNAc(b1-2)[Gal(b1-3)GlcNAc(b1-3)Gal(b1-4)GlcNAc(b1-6)]Man(a1-6)[Gal(b1-3)GlcNAc(b1-3)Gal(b1-4)GlcNAc(b1-2)Man(a1-3)]Man(b1-4)GlcNAc(b1-4)[Fuc(a1-6)]GlcNAc
# Procedure, shortened: as §1
# [27] = target: Gal(b1-3)GlcNAc(b1-3)Gal(b1-4)GlcNAc(b1-3)Gal(b1-4)GlcNAc(b1-2)[Gal(b1-3)GlcNAc(b1-3)Gal(b1-4)GlcNAc(b1-3)Gal(b1-4)GlcNAc(b1-6)]Man(a1-6)[Gal(b1-3)GlcNAc(b1-3)Gal(b1-4)GlcNAc(b1-3)Gal(b1-4)GlcNAc(b1-2)Man(a1-3)]Man(b1-4)GlcNAc(b1-4)[Fuc(a1-6)]GlcNAc
# Procedure, shortened: as §1
# [28] = target: Gal(b1-3)GlcNAc(b1-3)Gal(b1-4)GlcNAc(b1-6)[Gal(b1-3)GlcNAc(b1-3)]Gal(b1-4)Glc
# Procedure, shortened: as §1
# [29] = target: Gal(b1-3)GlcNAc(b1-3)Gal(b1-4)[Fuc(a1-3)]GlcNAc
# Procedure, shortened: as §1
# [30] = target: Gal(b1-3)GlcNAc(b1-3)Gal(b1-4)[Fuc(a1-3)]GlcNAc(b1-6)[Gal(b1-3)GlcNAc(b1-3)]Gal(b1-4)Glc
# Procedure, shortened: as §1
# [31] = target: Gal(b1-3)GlcNAc(b1-3)GalNAc
# Procedure, shortened: as §1
# [32] = target: Gal(b1-3)GlcNAc(b1-6)Gal(b1-4)GlcNAc
# Procedure, shortened: as §1
# [33] = target: Gal(b1-3)GlcNAc(b1-6)GalNAc
# Procedure, shortened: as §1
binder,measurement,setting,value
CM2 (Cordyceps militaris) (protein) MEIAEQNVGKSCAIVNLIPPKEGSNIWTAKQVTIARNLPPNRGTGRHQIDWSFGPVKVTGYVDTTNWEIGVTVSIMGIDLGTVYGNLRDGVVLNVDLFLAKGQVRFYLKNGNEVWVHLSVEIRFDGKFEGDYKIITV,glycan array binding signal (z-score),[1],-0.924
same,glycan array binding signal (z-score),[2],0.458
same,glycan array binding signal (z-score),[3],0.113
same,glycan array binding signal (z-score),[4],-0.847
same,glycan array binding signal (z-score),[5],-0.498
same,glycan array binding signal (z-score),[6],-0.632
same,glycan array binding signal (z-score),Gal(a1-3)GalNAc,-0.215
same,glycan array binding signal (z-score),[7],-1.05
same,glycan array binding signal (z-score),[8],0.151
same,glycan array binding signal (z-score),Gal(a1-4)Gal(b1-4)Glc,0.842
same,glycan array binding signal (z-score),Gal(a1-4)Gal(b1-4)GlcNAc,-0.275
same,glycan array binding signal (z-score),[9],0.617
same,glycan array binding signal (z-score),[10],0.58
same,glycan array binding signal (z-score),Gal(a1-4)GlcNAc,-1.74
same,glycan array binding signal (z-score),Gal(a1-6)Glc,-0.883
same,glycan array binding signal (z-score),Gal(b1-2)Gal,1.72
same,glycan array binding signal (z-score),Gal(b1-3)Gal,0.686
same,glycan array binding signal (z-score),Gal(b1-3)Gal(b1-4)GlcNAc,-0.624
same,glycan array binding signal (z-score),Gal(b1-3)GalNAc,0.369
same,glycan array binding signal (z-score),[11],0.886
same,glycan array binding signal (z-score),[12],-0.642
same,glycan array binding signal (z-score),Gal(b1-3)GalNAc(b1-3)Gal,-1.31
same,glycan array binding signal (z-score),[13],1.44
same,glycan array binding signal (z-score),[14],-0.582
same,glycan array binding signal (z-score),[15],-0.259
same,glycan array binding signal (z-score),Gal(b1-3)GlcNAc,-1.5
same,glycan array binding signal (z-score),[16],-0.31
same,glycan array binding signal (z-score),[17],0.701
same,glycan array binding signal (z-score),Gal(b1-3)GlcNAc(b1-2)Man,0.405
same,glycan array binding signal (z-score),[18],-0.292
same,glycan array binding signal (z-score),[19],-0.624
same,glycan array binding signal (z-score),[20],-0.071
same,glycan array binding signal (z-score),[21],0.007
same,glycan array binding signal (z-score),[22],-0.396
same,glycan array binding signal (z-score),[23],0.82
same,glycan array binding signal (z-score),[24],1.1
same,glycan array binding signal (z-score),[25],-0.227
same,glycan array binding signal (z-score),[26],0.677
same,glycan array binding signal (z-score),[27],-0.249
same,glycan array binding signal (z-score),[28],0.866
same,glycan array binding signal (z-score),[29],-0.064
same,glycan array binding signal (z-score),[30],1.15
same,glycan array binding signal (z-score),[31],0.628
same,glycan array binding signal (z-score),[32],0.36
same,glycan array binding signal (z-score),[33],0.957

# Fetched one by one from the entries so far (2):
binder,measurement,setting,value
CM2 (Cordyceps militaris) (protein) MEIAEQNVGKSCAIVNLIPPKEGSNIWTAKQVTIARNLPPNRGTGRHQIDWSFGPVKVTGYVDTTNWEIGVTVSIMGIDLGTVYGNLRDGVVLNVDLFLAKGQVRFYLKNGNEVWVHLSVEIRFDGKFEGDYKIITV,glycan array binding signal (z-score),[15],-0.259
same,glycan array binding signal (z-score),Gal(b1-2)Gal,1.72

# Reference: the supplement of paper PMC8728848
